{"sequences": {"note": "Amino acid sequences for entries named in this document (tags omitted). A change or cut given only in a name is not applied to a line headed by its entry.", "UniProt Q96KB5": "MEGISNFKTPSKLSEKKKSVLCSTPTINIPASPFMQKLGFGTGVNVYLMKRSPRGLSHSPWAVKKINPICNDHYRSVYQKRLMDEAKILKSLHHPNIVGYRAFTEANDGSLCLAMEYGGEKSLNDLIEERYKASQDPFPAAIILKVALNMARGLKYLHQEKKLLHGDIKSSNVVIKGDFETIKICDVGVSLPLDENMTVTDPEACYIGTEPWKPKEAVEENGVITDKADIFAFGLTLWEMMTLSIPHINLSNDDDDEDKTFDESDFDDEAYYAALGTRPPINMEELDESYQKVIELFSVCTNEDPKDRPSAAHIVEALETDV", "UniProt P09619, whole entry": "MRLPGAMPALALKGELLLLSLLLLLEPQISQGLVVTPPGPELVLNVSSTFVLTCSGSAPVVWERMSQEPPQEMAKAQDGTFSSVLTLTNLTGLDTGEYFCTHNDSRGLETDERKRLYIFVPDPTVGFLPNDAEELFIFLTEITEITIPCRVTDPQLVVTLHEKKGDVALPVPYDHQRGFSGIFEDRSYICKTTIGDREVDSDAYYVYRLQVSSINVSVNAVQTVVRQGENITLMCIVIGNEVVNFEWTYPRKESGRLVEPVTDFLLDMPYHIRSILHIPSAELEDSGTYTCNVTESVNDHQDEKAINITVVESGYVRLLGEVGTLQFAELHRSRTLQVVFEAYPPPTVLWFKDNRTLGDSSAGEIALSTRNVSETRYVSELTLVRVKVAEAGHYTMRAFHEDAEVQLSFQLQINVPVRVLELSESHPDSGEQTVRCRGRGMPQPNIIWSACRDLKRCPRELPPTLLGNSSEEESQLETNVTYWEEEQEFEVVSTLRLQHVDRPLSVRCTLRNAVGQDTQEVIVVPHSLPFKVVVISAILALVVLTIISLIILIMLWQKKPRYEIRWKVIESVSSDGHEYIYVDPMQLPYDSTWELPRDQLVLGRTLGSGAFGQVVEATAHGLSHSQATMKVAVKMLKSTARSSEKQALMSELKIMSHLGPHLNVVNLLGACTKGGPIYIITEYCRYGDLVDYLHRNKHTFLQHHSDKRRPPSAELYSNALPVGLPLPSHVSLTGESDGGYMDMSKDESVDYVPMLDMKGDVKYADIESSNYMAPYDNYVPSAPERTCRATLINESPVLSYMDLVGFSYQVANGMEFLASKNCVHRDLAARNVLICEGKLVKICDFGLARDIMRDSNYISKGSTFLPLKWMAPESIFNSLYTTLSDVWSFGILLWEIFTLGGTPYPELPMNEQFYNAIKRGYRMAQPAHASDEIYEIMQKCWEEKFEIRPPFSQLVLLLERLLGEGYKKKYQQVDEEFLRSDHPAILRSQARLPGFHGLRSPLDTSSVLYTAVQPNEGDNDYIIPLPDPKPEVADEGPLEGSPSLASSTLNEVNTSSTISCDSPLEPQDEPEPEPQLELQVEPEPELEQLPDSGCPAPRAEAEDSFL"}, "source": "the supplement of paper PMC12823440", "about": "“Inhibitors supercharge kinase turnover through native proteolytic circuits” (Nature, 2025)", "note": "Counter-ions that a name gives are not always drawn. The list shows a part of the results. Hit calls seldom repeat between salt and free forms of one compound.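 Kinases were expressed as nanoluciferase fusions in K562 cells and luminescence was read every 4 h between 2 and 18 h as percent of control, DMSO set to 100% and a positive control to 0%. A time point counts as decreased when the signal drops significantly (2 sigma). The hit call is the authors' own, does not follow from the count of time points alone, and its rule is not shown.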"}
{"molecular_target": "PBK (UniProt Q96KB5)", "assay": "number of time points (of 5) at which kinase-Nluc abundance scored as decreased, DMSO-normalised (count); higher = more persistent destabilization", "conditions": "K562; 2-18 h"}
{"smiles": "O=C(NCCO)c1ccc2c(c1)nc(Nc1cccc(Cl)c1)c1ccncc12", "note": "[CK2 inhibitor 2] (10 µM)", "number of time points": 0}
{"smiles": "COc1ccc(CC(=O)Nc2nc3c(s2)CCc2ccccc2-3)cc1OC", "note": "(10 µM)", "number of time points": 0}
{"smiles": "c1cc2c(cc1O[C@H]1OC[C@H]3[C@@H]1CO[C@@H]3c1ccc3c(c1)OCO3)OCO2", "note": "[Sesamolin] (10 µM)", "number of time points": 0}
{"smiles": "OCCNC1CCCc2c1[nH]c1ccc(-c3ccccc3)cc21", "note": "(stereo not given) (2.5 µM)", "number of time points": 0}
{"smiles": "CNc1nc(Nc2cnn(C3CCN(C4COC4)CC3F)c2Cl)ncc1C(F)(F)F", "note": "(stereo not given) (10 µM)", "number of time points": 0}
{"smiles": "Cc1cc2cc(Nc3ccnc(Nc4ccc5[nH]c(C)cc5c4)n3)ccc2[nH]1", "note": "(2.5 µM)", "number of time points": 0}
{"smiles": "CC(C)(C)NC(=O)c1cncn1C1CCN(c2ccc(-c3nnc(C(F)(F)F)o3)cn2)CC1", "note": "(10 µM)", "number of time points": 0}
{"molecular_target": "PDGFRB (UniProt P09619)", "assay": "number of time points (of 5) at which kinase-Nluc abundance scored as decreased, DMSO-normalised (count); higher = more persistent destabilization", "conditions": "K562; 2-18 h"}
{"smiles": "C[C@@H](c1ccc2nccn2c1)n1nnc2ncc(-c3cnn(C)c3)nc21", "note": "[Savolitinib] (10 µM)", "number of time points": 0}
{"smiles": "CN1C(=O)C(Cc2c[nH]c3ccccc23)NC1=S", "note": "(stereo not given) [Necrostatin-1] (10 µM)", "number of time points": 0}
{"smiles": "C[C@@H]1C(=O)O[C@H](C)[C@H]1C[C@@H](O)[C@](C)(O)[C@H]1CC[C@@]2(O)C3=CC(=O)[C@@H]4C[C@@H](O)[C@@H](O)C[C@]4(C)[C@H]3CC[C@]12C", "note": "[Cyasterone] (10 µM)", "number of time points": 0}
{"smiles": "CC(c1ccc(-c2cnc3c(-c4ccc(S(N)(=O)=O)c5ccccc45)cnn3c2)cc1)N1CCCC1", "note": "(stereo not given) (2.5 µM)", "number of time points": 0}
{"smiles": "CCn1c(=O)c(-c2ccc(-c3cncc(C)n3)cc2Cl)cc2cnc(NCCC3CCN(C)CC3)nc21", "note": "(10 µM)", "number of time points": 0}
{"smiles": "O=C(O)c1cc(O)ccc1O", "note": "[2,5-Dihydroxybenzoic acid] (10 µM)", "number of time points": 0}
{"smiles": "CC(=NNC(=O)c1ccc(C)c(Br)c1)c1ccc(O)cc1O", "note": "[mTOR inhibitor-1] (2.5 µM)", "number of time points": 0}
{"smiles": "Nc1ncnc2c1ncn2[C@@H]1O[C@H](CO)C[C@H]1O", "note": "[Cordycepin] (10 µM)", "number of time points": 0}
{"smiles": "C=CC(=O)Nc1cc2c(Nc3ccc(OCc4ccccn4)c(Cl)c3)ncnc2cc1OCCN1CCOCC1", "note": "(10 µM)", "number of time points": 0}
{"smiles": "Cc1ccc(S(=O)(=O)Nc2ccccc2C=Nc2ccccc2NS(=O)(=O)c2ccc(C)cc2)cc1", "note": "(10 µM)", "number of time points": 0}
{"smiles": "CCOc1cc(C(=O)N2CCC(N3CCN(C)CC3)CC2)ccc1Nc1ncc2c(n1)N(C1CCCC1)c1ccccc1C(=O)N2C", "note": "(10 µM)", "number of time points": 0}
{"smiles": "Cn1cnc(-c2cc3nccc(Oc4ccc(NC(=S)NC(=O)Cc5ccccc5)cc4F)c3s2)c1", "note": "[MGCD-265 analog] (10 µM)", "number of time points": 0}
{"smiles": "Cn1c(=O)c(F)c(Nc2ccc(I)cc2F)c2c(=O)n(C[C@@H](O)CO)cnc21", "note": "(10 µM)", "number of time points": 0}
{"smiles": "Nc1ncnc2c1c(-c1ccc(Oc3ccccc3)cc1)nn2C1CCNCC1", "note": "[N-piperidine Ibrutinib (hydrochloride)] (10 µM)", "number of time points": 0}
{"smiles": "Cc1csc(-c2nnc(Nc3ccc(Oc4ncccc4-c4ccnc(N)n4)cc3)c3ccccc23)c1", "note": "(2.5 µM)", "number of time points": 0}
{"smiles": "O=C(O)CCc1ccc(O)c(O)c1", "note": "[Dihydrocaffeic acid] (10 µM)", "number of time points": 0}
{"smiles": "COCCOc1cnc(Sc2cc(C)c(-c3csc(NC(=O)c4ccncc4)n3)c(C)c2)cn1", "note": "[T-1101 (tosylate)] (2.5 µM)", "number of time points": 0}
{"smiles": "Cc1cc(NC(=O)c2cccc(NC(=O)/C=C/CN(C)C)c2)ccc1Nc1nccc(-c2cccnc2)n1", "note": "(10 µM)", "number of time points": 0}
{"smiles": "Cc1c(NC(=O)OC[C@@H]2COCCN2)cn2ncnc(Nc3ccc4c(cnn4Cc4cccc(F)c4)c3)c12", "note": "(10 µM)", "number of time points": 0}
{"smiles": "Cc1ccc(-c2c(C(=O)CF)n(CCCO)c3ncnc(N)c23)cc1", "note": "(10 µM)", "number of time points": 0}
{"smiles": "Cc1ccc(-c2c(C(=O)CCl)n(CCCO)c3ncnc(N)c23)cc1", "note": "(10 µM)", "number of time points": 3}
{"smiles": "COc1cc(F)c(F)c(Nc2ccc(I)cc2F)c1NS(=O)(=O)C1(C[C@H](O)CO)CC1", "note": "[Refametinib] (10 µM)", "number of time points": 0}
{"smiles": "CCN(CC)c1ccc2cc(C(=O)N3CCN(C(=O)C4=Cc5c(Br)cccc5S4(=O)=O)CC3)c(=O)oc2c1", "note": "(2 µM)", "number of time points": 0}
{"smiles": "COc1ccc(C(=C2C(=O)Nc3ccccc32)c2ccc(OC)cc2)cc1", "note": "(10 µM)", "number of time points": 0}
{"smiles": "N#Cc1ccc2ncnc(NC3CCC(N4CCOCC4)CC3)c2c1", "note": "(stereo not given) (10 µM)", "number of time points": 0}
{"smiles": "NCCN1CCN(C/C=C/C(=O)N2CCC[C@@H](n3nc(-c4ccc(Oc5ccccc5)cc4)c4c(N)ncnc43)C2)CC1", "note": "[Ibrutinib-MPEA] (10 µM)", "number of time points": 0}
{"smiles": "CN(CC(=O)N(Cc1ccc(C2CCCCC2)cc1)c1ccc(C(=O)O)cc1)S(=O)(=O)c1c(F)c(F)c(F)c(F)c1F", "note": "(2.5 µM)", "number of time points": 0}
{"smiles": "CCn1c(C(=O)N(C2CC2)C2CC2)cc2c3c(ncn3C)c(Nc3cc(C)n(C)n3)nc21", "note": "(10 µM)", "number of time points": 0}
{"smiles": "CC(C)CN(CC(=O)N1CCN(CC(OCc2ccc3ccccc3c2)c2ccc(Cl)cc2Cl)CC1)CC(C)C", "note": "(stereo not given) [LYN-1604 (dihydrochloride)] (2.5 µM)", "number of time points": 0}
{"smiles": "COc1ccc2[nH]cc(/C=C3\\C(=O)Nc4ccc(NC(=O)CCN5CCCCC5)cc43)c2c1", "note": "(2.5 µM)", "number of time points": 0}
{"smiles": "CC(C)=CC(=O)CCC(=O)N1CCN(Cc2cc3nc(-c4cccc5[nH]ncc45)nc(N4CCOCC4)c3s2)CC1", "note": "(10 µM)", "number of time points": 0}
{"smiles": "O=C(NCCO)c1ccc2c(c1)nc(Nc1cccc(Cl)c1)c1ccncc12", "note": "[CK2 inhibitor 2] (10 µM)", "number of time points": 0}
{"smiles": "COc1ccc(CC(=O)Nc2nc3c(s2)CCc2ccccc2-3)cc1OC", "note": "(10 µM)", "number of time points": 0}
{"smiles": "c1cc2c(cc1O[C@H]1OC[C@H]3[C@@H]1CO[C@@H]3c1ccc3c(c1)OCO3)OCO2", "note": "[Sesamolin] (10 µM)", "number of time points": 0}
{"smiles": "OCCNC1CCCc2c1[nH]c1ccc(-c3ccccc3)cc21", "note": "(stereo not given) (2.5 µM)", "number of time points": 0}
{"smiles": "CNc1nc(Nc2cnn(C3CCN(C4COC4)CC3F)c2Cl)ncc1C(F)(F)F", "note": "(stereo not given) (10 µM)", "number of time points": 0}
{"smiles": "Cc1cc2cc(Nc3ccnc(Nc4ccc5[nH]c(C)cc5c4)n3)ccc2[nH]1", "note": "(2.5 µM)", "number of time points": 0}
{"smiles": "CC(C)(C)NC(=O)c1cncn1C1CCN(c2ccc(-c3nnc(C(F)(F)F)o3)cn2)CC1", "note": "(10 µM)", "number of time points": 0}
